Experimental data from the M2OR odorant receptor database.
Only a part is listed here, and it is no random draw. Calls are pooled over several reports, among them a noisy single-well screen. The list shows a part of the results.

Chains of the proteins cited; added tags and fusions are not shown. A line that says so, or that is headed by a name, gives the form on record, which may keep a tag or linker.
OR1A1 I205V, as listed by the source, stated change not applied: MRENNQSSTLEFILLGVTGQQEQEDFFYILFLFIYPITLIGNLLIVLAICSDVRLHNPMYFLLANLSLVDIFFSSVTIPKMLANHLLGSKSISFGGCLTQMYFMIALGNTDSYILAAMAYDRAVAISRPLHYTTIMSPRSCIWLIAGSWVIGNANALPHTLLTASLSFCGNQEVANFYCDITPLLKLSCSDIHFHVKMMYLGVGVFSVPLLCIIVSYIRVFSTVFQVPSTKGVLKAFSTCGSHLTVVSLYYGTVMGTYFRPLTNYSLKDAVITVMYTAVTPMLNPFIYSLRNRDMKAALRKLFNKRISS
OR1A1 T280F, as listed by the source, stated change not applied: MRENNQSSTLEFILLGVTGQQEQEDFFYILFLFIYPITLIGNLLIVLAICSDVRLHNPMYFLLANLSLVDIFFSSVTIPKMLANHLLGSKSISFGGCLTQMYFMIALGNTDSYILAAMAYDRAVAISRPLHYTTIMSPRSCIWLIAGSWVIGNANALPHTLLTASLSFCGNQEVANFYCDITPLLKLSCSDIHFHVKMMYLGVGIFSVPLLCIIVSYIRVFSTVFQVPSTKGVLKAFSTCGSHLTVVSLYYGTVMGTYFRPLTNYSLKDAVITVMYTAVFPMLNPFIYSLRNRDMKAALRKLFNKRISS
OR1A1 S112A, as listed by the source, stated change not applied: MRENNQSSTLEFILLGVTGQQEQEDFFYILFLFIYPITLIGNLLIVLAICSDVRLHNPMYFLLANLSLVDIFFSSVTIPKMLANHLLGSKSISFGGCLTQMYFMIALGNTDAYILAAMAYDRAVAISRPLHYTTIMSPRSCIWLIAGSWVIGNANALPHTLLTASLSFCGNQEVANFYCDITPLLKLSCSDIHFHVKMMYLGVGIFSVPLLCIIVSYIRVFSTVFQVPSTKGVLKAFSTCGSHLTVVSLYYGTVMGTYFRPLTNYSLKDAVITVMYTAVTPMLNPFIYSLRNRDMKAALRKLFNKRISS
OR1A1 G152A, as listed by the source, stated change not applied: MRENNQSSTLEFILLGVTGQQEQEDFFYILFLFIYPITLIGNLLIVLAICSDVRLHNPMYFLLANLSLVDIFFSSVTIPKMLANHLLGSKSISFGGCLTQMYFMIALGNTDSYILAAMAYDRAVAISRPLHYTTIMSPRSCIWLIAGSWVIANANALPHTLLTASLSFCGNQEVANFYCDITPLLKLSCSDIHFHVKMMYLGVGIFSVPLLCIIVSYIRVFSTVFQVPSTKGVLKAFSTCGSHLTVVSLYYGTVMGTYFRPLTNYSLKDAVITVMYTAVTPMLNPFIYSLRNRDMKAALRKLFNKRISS
OR1A1 T277M, as listed by the source, stated change not applied: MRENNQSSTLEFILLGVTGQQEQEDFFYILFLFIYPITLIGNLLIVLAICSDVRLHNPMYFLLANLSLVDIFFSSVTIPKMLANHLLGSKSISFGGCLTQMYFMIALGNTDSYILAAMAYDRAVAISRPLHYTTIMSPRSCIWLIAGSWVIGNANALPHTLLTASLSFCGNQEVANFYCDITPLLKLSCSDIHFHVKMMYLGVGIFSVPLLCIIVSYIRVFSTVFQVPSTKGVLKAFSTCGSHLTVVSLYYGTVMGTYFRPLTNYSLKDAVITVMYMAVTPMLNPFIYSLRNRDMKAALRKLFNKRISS
OR1A1 T280A, as listed by the source, stated change not applied: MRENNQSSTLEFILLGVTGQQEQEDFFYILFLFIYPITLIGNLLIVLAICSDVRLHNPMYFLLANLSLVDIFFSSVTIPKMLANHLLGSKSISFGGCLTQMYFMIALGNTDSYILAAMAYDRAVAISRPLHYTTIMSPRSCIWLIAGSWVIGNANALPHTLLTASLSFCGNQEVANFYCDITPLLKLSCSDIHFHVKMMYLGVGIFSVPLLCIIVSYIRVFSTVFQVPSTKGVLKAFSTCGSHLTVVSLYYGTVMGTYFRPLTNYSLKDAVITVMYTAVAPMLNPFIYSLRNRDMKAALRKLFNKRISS
OR1A1 S248F, as listed by the source, stated change not applied: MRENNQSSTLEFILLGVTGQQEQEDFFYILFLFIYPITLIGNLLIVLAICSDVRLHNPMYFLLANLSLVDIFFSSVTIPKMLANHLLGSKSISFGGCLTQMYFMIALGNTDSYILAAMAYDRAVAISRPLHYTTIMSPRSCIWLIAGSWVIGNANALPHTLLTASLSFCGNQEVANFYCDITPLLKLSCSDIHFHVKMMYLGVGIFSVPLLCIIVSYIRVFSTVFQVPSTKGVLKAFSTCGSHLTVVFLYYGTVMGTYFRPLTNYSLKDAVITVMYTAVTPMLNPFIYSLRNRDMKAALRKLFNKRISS
OR1A1 N155S, as listed by the source, stated change not applied: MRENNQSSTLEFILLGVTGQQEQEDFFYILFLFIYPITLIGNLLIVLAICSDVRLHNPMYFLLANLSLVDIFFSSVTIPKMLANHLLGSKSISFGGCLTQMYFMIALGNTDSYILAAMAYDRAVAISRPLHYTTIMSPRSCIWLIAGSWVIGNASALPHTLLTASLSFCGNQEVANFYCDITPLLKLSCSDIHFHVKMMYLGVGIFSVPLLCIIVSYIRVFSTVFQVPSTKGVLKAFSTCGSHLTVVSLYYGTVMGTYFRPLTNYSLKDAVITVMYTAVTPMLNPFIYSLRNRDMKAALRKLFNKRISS
OR1A1 N109D, as listed by the source, stated change not applied: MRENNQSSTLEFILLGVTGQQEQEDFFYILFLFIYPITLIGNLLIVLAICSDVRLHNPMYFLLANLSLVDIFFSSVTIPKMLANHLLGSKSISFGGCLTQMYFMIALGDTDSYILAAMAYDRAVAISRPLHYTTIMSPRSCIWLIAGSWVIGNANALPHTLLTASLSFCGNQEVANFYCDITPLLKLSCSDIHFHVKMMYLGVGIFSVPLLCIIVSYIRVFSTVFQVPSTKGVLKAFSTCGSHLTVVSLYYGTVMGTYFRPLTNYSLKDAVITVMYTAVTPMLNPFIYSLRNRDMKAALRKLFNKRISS
OR1A1 N109K, as listed by the source, stated change not applied: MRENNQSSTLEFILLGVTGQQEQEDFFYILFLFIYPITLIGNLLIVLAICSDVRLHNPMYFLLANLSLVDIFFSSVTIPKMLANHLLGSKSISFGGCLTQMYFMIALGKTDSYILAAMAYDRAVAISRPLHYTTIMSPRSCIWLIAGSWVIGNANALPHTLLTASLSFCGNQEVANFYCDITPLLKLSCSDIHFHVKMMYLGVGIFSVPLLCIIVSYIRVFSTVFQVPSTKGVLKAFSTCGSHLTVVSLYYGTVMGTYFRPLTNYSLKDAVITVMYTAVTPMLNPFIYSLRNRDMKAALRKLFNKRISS

What was measured:
Details in all cases: stereoisomer not certain
OR1A1 G152A = system: OR1A1 G152A
Outline: (§1)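 Whether a receptor–molecule pair is responsive (active) rests on the original authors' judgment that its measured signal was statistically different from baseline. Pairs without that judgment are non-responsive (inactive). Sources used varied assay methods, commonly transient luciferase assays in mammalian cell lines.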

OR1A1 I205V = system: OR1A1 I205V
Outline: as §1

OR1A1 N109D = system: OR1A1 N109D
Outline: as §1

OR1A1 N109K = system: OR1A1 N109K
Outline: as §1

OR1A1 N155S = system: OR1A1 N155S
Outline: as §1

OR1A1 S112A = system: OR1A1 S112A
Outline: as §1

OR1A1 S248F = system: OR1A1 S248F
Outline: as §1

OR1A1 T277M = system: OR1A1 T277M
Outline: as §1

OR1A1 T280A = system: OR1A1 T280A
Outline: as §1

OR1A1 T280F = system: OR1A1 T280F
Outline: as §1

Measured: odorant receptor agonist call;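 note: active if original authors judged signal statistically different from baseline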

C=C(C)C1CC=C(C)C(=O)C1 (stereo not given)
active: OR1A1 G152A | OR1A1 I205V | OR1A1 N155S | OR1A1 S248F | OR1A1 T277M | OR1A1 T280A
inactive: OR1A1 N109D | OR1A1 N109K | OR1A1 S112A | OR1A1 T280F
